For assay [1], the target named is Endogenous Rad51 (human (endogenous in HeLa)) (UniProt Q06609). Description: co-IP; HeLa nuclear extract (1 mg protein) with rabbit polyclonal anti-RECQ1 or mouse monoclonal anti-Rad51, protein G-agarose, buffer D (50 mM HEPES pH 7.5, 100 mM KCl, 10% glycerol), 4°C; washes with 0.1% Tween 20; Western blot.
Assay [2] has as its target Endogenous RECQ1 (human (endogenous in HeLa)) (UniProt P46063). Described as above.
The target is the same in assay [3]. The assay is described as follows: co-IP; RECQ1 immunoprecipitate probed for MSH2/6 and MLH1; data not shown.

Sequences of proteins named here, by UniProt entry; tags and fusion partners are left off. A change or cut given only in a name is not applied to a line headed by its entry.
UniProt Q06609: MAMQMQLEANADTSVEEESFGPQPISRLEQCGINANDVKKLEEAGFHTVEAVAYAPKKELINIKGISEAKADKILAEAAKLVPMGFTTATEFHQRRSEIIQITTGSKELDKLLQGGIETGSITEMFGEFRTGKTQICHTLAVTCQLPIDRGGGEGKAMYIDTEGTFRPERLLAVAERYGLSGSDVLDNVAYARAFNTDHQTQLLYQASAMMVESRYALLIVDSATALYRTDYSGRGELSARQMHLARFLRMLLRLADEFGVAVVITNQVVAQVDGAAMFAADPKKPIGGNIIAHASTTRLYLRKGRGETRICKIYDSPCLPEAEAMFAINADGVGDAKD
UniProt P46063: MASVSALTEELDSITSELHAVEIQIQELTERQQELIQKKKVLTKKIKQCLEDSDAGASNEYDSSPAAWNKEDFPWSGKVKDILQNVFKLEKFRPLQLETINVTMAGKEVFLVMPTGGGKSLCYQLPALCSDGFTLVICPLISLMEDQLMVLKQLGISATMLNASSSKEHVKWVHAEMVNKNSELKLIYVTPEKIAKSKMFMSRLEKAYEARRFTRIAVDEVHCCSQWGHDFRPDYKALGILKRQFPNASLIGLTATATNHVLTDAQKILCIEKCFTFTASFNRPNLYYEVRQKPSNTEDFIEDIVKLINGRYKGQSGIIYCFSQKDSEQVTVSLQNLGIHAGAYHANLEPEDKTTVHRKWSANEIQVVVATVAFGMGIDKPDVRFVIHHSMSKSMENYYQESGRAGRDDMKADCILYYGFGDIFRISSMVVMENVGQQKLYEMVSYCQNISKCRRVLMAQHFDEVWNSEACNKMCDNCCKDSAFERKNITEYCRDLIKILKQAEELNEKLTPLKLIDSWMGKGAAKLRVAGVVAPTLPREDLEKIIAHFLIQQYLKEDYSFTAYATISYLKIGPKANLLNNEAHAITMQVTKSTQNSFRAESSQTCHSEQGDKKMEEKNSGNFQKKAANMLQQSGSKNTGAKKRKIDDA
UniProt P43246: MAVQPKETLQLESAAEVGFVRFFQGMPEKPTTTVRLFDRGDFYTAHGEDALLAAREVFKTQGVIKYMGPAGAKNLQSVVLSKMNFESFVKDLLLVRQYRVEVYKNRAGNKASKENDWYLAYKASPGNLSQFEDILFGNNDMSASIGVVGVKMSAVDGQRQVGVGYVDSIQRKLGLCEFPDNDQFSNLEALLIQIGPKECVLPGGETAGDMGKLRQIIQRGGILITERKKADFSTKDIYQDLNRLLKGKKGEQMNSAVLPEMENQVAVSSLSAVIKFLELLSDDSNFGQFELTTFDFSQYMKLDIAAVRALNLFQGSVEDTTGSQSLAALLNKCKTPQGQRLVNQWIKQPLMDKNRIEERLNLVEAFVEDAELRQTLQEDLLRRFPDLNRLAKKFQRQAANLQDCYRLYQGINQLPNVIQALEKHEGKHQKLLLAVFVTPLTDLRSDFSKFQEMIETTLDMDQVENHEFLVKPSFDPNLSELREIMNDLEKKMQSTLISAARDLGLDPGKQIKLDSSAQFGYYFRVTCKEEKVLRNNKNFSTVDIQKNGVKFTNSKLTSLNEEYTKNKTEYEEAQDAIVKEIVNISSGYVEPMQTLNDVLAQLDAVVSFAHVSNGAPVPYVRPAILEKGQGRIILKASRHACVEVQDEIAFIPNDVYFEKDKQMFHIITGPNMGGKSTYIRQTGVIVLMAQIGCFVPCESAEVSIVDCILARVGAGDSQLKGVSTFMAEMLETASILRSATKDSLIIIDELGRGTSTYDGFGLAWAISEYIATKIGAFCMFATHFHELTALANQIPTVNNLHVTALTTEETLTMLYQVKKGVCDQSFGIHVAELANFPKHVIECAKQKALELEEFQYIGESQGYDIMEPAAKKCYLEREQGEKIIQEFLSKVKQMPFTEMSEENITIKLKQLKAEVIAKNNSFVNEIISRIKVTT

No constants are given. Whether binding was seen depends on the method and setting. Binding seen in cells or lysates may run through a third protein. Some entries that bind do so weakly or less than the wild type.

For the substance “Endogenous RECQ1 (from UniProt P46063 1-649)”, the binding entry in assay [1] is “binds”.
With “Endogenous Rad51 (from UniProt Q06609 1-339)”, the binding entry in assay [2] is “binds”.
Take “MSH2/6 (from UniProt P43246 1-934; P52701 1-1360) (complex)”: the binding result in assay [3] is reported as “binds”.

Source of the values: paper PMC2111050, “Human RECQ1 Is a DNA Damage Responsive Protein Required for Genotoxic Stress Resistance and Suppression of Sister Chromatid Exchanges” (PLoS ONE, 2007).
